# No constants are given. Whether binding was seen depends on the method and setting. In cells and extracts the contact can be indirect. Binding calls can cover weak binding; strength is not graded here. Tags and fused reporters may be left off the sequences shown.
# Target: T1, Arabidopsis thaliana Receptor-Like Protein 30, GFP-tagged (RLP30-GFP) (Arabidopsis thaliana) (UniProt Q9MA83)
# T1 sequence: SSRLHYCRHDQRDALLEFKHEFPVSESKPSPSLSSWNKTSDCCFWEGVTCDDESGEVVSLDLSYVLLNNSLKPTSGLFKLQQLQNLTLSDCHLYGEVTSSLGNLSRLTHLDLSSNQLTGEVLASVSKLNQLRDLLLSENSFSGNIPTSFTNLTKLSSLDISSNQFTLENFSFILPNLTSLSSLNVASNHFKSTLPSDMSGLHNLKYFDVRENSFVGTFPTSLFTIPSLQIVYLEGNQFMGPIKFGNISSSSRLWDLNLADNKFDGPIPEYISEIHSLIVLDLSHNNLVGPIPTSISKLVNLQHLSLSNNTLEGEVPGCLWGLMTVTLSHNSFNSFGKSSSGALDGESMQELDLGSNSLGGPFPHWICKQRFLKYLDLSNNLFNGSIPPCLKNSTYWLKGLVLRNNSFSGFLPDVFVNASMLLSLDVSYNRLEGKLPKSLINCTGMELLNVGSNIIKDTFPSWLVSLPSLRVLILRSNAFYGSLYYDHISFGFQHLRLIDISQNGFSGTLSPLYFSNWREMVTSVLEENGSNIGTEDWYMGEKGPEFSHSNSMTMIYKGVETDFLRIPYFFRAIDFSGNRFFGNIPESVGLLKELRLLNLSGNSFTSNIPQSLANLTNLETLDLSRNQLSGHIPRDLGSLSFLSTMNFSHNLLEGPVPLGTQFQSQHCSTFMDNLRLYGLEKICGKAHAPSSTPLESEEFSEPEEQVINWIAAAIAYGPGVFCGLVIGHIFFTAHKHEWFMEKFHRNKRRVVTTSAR
# Experiment: co-IP; SCP^Ss-Myc (or Cys-to-Ser mutants) and GFP-tagged RLP transiently co-expressed in N. benthamiana; leaf protein extracts on day 2; immunoprecipitation with GFP-Trap beads; immunoblotting with tag-specific antibodies
substance,measurement,value
"SMALL CYSTEINE-RICH PROTEIN FROM S. SCLEROTIORUM, myc-tagged (SCP^Ss-myc) (Sclerotinia sclerotiorum) (ligand)",binding,binds

# — publication PMC10279758
